Where “and” joins values, the source holds several entries; their conditions need not be identical. Equal entries are not always repeated. Inconclusive means that the source gave no clear call. Such entries were picked first, then a sample of the others. A potency beside an inconclusive call is a rough fit, not a confirmed value. Calls of active or inactive are those of the source. Calls follow the shape of the full dose curve.
What follows are compounds tested against Retinoic acid receptor RXR-alpha (Homo sapiens) (UniProt P19793) (assay: qHTS assay to identify small molecule agonists of the RXR signaling pathway (AID 1159527; also: nearly all actives have a fitted effect of over 35% in size)). Conditions: HEK293T RXRa-UAS-bla, beta-lactamase ratio, 16 h; activation: at 76.8 µM (top of the series) unless noted.
How it was run: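 GeneBLAzer RXR-alpha-UAS-bla HEK 293T cells in medium with 2% charcoal-stripped FBS, pre-incubated 5 hr at 37 C, then exposed to compounds 16 hr. Beta-lactamase reporter read by FRET substrate, 2 hr room temperature, 460/530 nm emission.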
% is scaled to controls: 0 for no effect and ±100 for the full control effect; potency is read from the fitted curve at half-maximal effect.

Sequences of proteins named here, by UniProt entry; tags and fusion partners are left off. A change or cut given only in a name is not applied to a line headed by its entry.
UniProt P19793: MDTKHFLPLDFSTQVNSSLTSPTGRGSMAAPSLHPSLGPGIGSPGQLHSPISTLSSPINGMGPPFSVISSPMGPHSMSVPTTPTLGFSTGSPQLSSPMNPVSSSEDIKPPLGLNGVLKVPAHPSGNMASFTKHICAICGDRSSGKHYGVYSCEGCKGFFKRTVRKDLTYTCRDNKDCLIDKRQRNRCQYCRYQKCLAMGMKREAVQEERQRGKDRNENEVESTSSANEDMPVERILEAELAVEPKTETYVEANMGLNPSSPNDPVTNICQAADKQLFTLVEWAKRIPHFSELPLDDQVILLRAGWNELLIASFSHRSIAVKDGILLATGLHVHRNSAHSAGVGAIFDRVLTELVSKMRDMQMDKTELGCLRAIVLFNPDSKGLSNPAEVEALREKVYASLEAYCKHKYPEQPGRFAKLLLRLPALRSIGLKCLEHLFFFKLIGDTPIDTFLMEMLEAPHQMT

| SMILES | Potency | activation |
| --- | --- | --- |
| CO[C@@H]1[C@@H](O[C@@H]2O[C@H](C)[C@@H](O[C@H]3C[C@@](C)(O)[C@@H](O)[C@H](C)O3)[C@H](N(C)C)[C@H]2O)[C@@H](CC=O)C[C@@H](C)[C@@H](O[C@@H]2CC[C@H](N(C)C)[C@@H](C)O2)/C=C/C=C/C[C@@H](C)OC(=O)C[C@H]1OC(C)=O | inconclusive: 23.9 µM [rising, partial curve] |  |
| CCCCOc1cc(C(=O)NCCN(CC)CC)c2ccccc2n1 | inconclusive: 21.3 µM [inhibitor] |  |
| CCN(CCO)c1cccc(C)c1 | inactive |  |
| NC(=O)C1CO1 (centres undefined) | inactive |  |
| NCCCOCCOCCOCCCN | active: 43.6 µM |  |
| CCCCC(=O)OCC(=O)[C@H]1[C@H](C)C[C@H]2[C@@H]3C[C@H](F)C4=CC(=O)C=C[C@]4(C)[C@@]3(F)[C@@H](O)C[C@@]21C | inactive |  |
| CCOC(=O)Cn1c(=O)sc2cccc(Cl)c21 |  | inconclusive: 16.6% |
| C=CC[N+]1([C@H]2C[C@H]3[C@@H]4CC[C@H]5C[C@H](OC(C)=O)[C@@H](N6CCCCC6)C[C@]5(C)[C@H]4CC[C@]3(C)[C@H]2OC(=O)CC)CCCCC1 | inactive |  |
| COc1cc2c(Nc3ccc(Br)cc3F)ncnc2cc1OCC1CCN(C)CC1 | inactive |  |
| CCCCC(CC)COC(=O)CS (centres undefined) |  | inconclusive: -7.22% |
| CC(C)c1cccc(O)c1 | inactive |  |
| CC1(C)[C@H]2CC[C@]1(C)[C@H](O)C2 |  | inconclusive: 16.8% |
| CN(C)CCN(Cc1ccc(Cl)cc1)c1ccccn1 |  | inconclusive: -24.4% [at 35.3 µM] |
| CC1CC(=O)NN=C1c1ccc(NCC(C)(C)NCC(O)COc2cc(Cl)ccc2C#N)cc1 (centres undefined) | inconclusive: 0.134 µM [fluorescent, full curve, poor fit] |  |
| COc1cc(N)ccc1C | inactive |  |
| CCCCCCCCCCCCCCCCOS(=O)(=O)O |  | inconclusive: -0.524% [at 35.3 µM] |
| CCCC(C)C | inconclusive: 19.7 µM [activator] |  |
| CC(CCO)CCc1ccccc1 (centres undefined) | inactive |  |
| CSc1ccc(Oc2ccc(S(N)(=O)=O)cc2CN(C)C)cc1C | inconclusive: 17.4 µM [rising, partial curve, poor fit] |  |
| c1ccc(CN(Cc2ccccc2)Cc2ccccc2)cc1 | inconclusive: 21.9 µM [rising, partial curve, poor fit] |  |

| SMILES | Potency | activation |
| --- | --- | --- |
| c1ccc2c(c1)ccc1ccccc12 | inactive and inconclusive: 15.5 µM [inhibitor, partial curve, poor fit] |  |
| C[C@H]1C[C@@H]2[C@H]([C@@H](O)C[C@@]3(C)[C@H]2CC[C@]3(O)C(=O)CO)[C@@]2(C)C=CC(=O)C=C12 | inconclusive: 24.5 µM [fluorescent, full curve, poor fit] |  |
| CC(=O)Oc1cccc(C)c1 | inactive |  |
| N#Cc1ccc(C/C(=N/NC(=O)Nc2ccc(OC(F)(F)F)cc2)c2cccc(C(F)(F)F)c2)cc1 | inconclusive: 54.9 µM [cytotoxic] |  |
| CNNCc1ccc(C(=O)NC(C)C)cc1 |  | inconclusive: 7.43% |
| NC[C@H]1O[C@H](O[C@H]2[C@H](O)[C@@H](O[C@H]3O[C@H](CO)[C@@H](O)[C@H](N)[C@H]3O)[C@H](N)C[C@@H]2N)[C@H](N)[C@@H](O)[C@@H]1O |  | inactive: 4.18% [at 15.8 µM] |
| O=S(=O)(O)c1ccc2ccccc2c1 | active: 11 µM |  |
| CCOC(=O)[C@H](C)O | inactive |  |
| S=C([S-])NCCNC(=S)[S-].[Mn+2] | inconclusive: 24.5 µM [inhibitor] |  |
| O=C(O)c1ccc2c(c1)nc(C(=O)NC1CCN(C3CC3)CC1)n2Cc1cc(-c2ccc(Cl)s2)on1 |  | inconclusive: 0.528% [at 15.8 µM] |
| COC(=O)c1ccccc1C(=O)c1ccc(OCCN2CCCCC2)cc1 | inactive |  |
| CCN(CCCCOC(=O)c1ccc(OC)c(OC)c1)C(C)Cc1ccc(OC)cc1 (centres undefined) | inconclusive: 10.7 µM [rising, partial curve] |  |
| CCN1CCCC1CNC(=O)c1cc(S(N)(=O)=O)ccc1OC (centres undefined) | active: 43.6 µM |  |
| O=S(=O)(O)c1cc(Cl)c(Cl)cc1Cl |  | inconclusive: 11.3% |
| OCC(CBr)(CBr)CBr | inactive |  |
| C/C(=C\c1ccc(C(=O)O)cc1)c1ccc2c(c1)C(C)(C)CCC2(C)C | active: 0.952 µM |  |
| Oc1ccc(Nc2ccccc2)cc1 | inconclusive: 21.9 µM [fluorescent, single point] |  |
| Cc1ccc(C(=O)C(C)CN2CCCCC2)cc1 (centres undefined) | inconclusive: 10.7 µM [rising, full curve, poor fit] |  |
| CCCCc1ccc(N)cc1 | inactive |  |

Given comma-delimited: part of the list above
SMILES,Potency,activation
N#Cc1ccc(C/C(=N/NC(=O)Nc2ccc(OC(F)(F)F)cc2)c2cccc(C(F)(F)F)c2)cc1,inconclusive: 54.9 µM [cytotoxic],
CNNCc1ccc(C(=O)NC(C)C)cc1,,inconclusive: 7.43%

From PubChem BioAssay (Tox21)
